Test results reported in the supplement of paper PMC10338343.
± gives the standard deviation. This is a selection; strong and weak results do not stand in their true shares. The uncertainty is large for many entries. The list shows a part of the results.

Legend:
[1] = test system: MILI (PIWIL2) piRISC loaded with L1MC piRNA (26 nt); test: pre-steady-state target cleavage rate (min^-1); higher = faster piRNA-guided slicing of the target; conditions: guide: L1MC piRNA 5'p-UAACUAAAUACUAUGCAAGCUGUAGG
Summary of the method: (§1)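 Cleave-'n-Seq used a transcribed, DNA-blocked target RNA library at 0.1 nM and active affinity-purified piRISC with one synthetic guide at 1 nM, with or without 500 nM GTSF1 partner protein, in HEPES–potassium acetate buffer at 33 °C for 0–8 or 0–960 min. Uncleaved targets were sequenced and normalised to depth and to weakly complementary targets, and three trials were pooled with k3 capped at 0.0001 min^-1. The pre-steady-state cleavage rate was estimated by a burst-and-steady-state fit.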

[2] = test system: EfPiwi piRISC loaded with L1MC piRNA (26 nt); test: pre-steady-state target cleavage rate (min^-1); guide: L1MC piRNA 5'p-UAACUAAAUACUAUGCAAGCUGUAGG; MIWI and MILI are mouse PIWI proteins and EfPiwi is from a freshwater sponge; tags in brackets are library labels; higher = faster piRNA-guided slicing of the target
Summary of the method: as §1

[3] = auxiliary factor: none (no GTSF1)
[4] = auxiliary factor: 500 nM Ephydatia muelleri Gtsf1
[5] = auxiliary factor: 500 nM mouse GTSF1
[6] = auxiliary factor: none (no Gtsf1)

Sequence | pre-steady-state target cleavage rate [1, 3] | pre-steady-state target cleavage rate [2, 4] | pre-steady-state target cleavage rate [1, 5] | pre-steady-state target cleavage rate [2, 6]
UCCUGGAUGUCGAUCCAUAGUUUUUAGUUA | 0.000197 ± 0.027 | 0.000108 ± 0.027 |  | 
UCCUCCUACGGCUUGCAUAGUAUUUAGUUA |  | 0.0667 ± 0.017 | 0.298 ± 0.018 | 
UCCUGCUACAGCUUGCAUAGUAUUUAGUUU [g2:g25:cont:t1U] |  | 0.158 ± 0.042 | 0.315 ± 0.022 | 
UCCUGGAACAGCUUCCAUAGUAUUUUCAAA | 0.00035 ± 0.014 | 0.00139 ± 0.0025 |  | 
UCCUGGUACAGGUUGGAUAGUAUUUAGUUA |  |  | 0.303 ± 0.043 | 0.000278 ± 0.033
UCCUGGAUCAGCUAGCAUAGUAUUUACUUA | 0.00263 ± 0.0029 | 0.00117 ± 0.004 |  | 
UCCUCUACAGCUUGCAUAGUAUUUAGUUA |  | 0.183 ± 0.045 | 0.31 ± 0.013 | 
UCCUCCUACAGCUUGCAUAGUAUUUCAGUUA |  | 0.00437 ± 0.0022 | 0.463 ± 0.073 | 
UCCUGCUACAGCUUGGAUACUAUUUAGUUA | 0.00214 ± 0.003 | 0.00633 ± 0.0024 |  | 
UCCUGGAUGUCGAACGUAAGUAUUUACGUUA | 0.000289 ± 0.021 | 0.000106 ± 0.025 |  | 
UCCUGGUACAGCUUGCAUAGUAUUGAGUUA | 0.00343 ± 0.0035 | 0.00418 ± 0.0024 |  | 
UCCUGGUACAGCUUGCAUAGUAUAAUCAAA | 0.00075 ± 0.0085 | 0.00151 ± 0.0037 |  | 
UCCUGGAUGUCGAACGUAAGUAUUUAGAUA | 0.000155 ± 0.024 | 0.000136 ± 0.031 |  | 
UCCUGGAUGUCGAACCUUAGUAAUUAGUUA | 0.000314 ± 0.01 | 0.000389 ± 0.01 |  | 
UCCUGGAUGUCGAAGCAUAGUAUUUACGUUA | 0.00145 ± 0.0041 | 0.000284 ± 0.014 |  | 
UCCUCCUACAGCUUGCAUAGUAUUAUCAAA | 0.00149 ± 0.0048 | 0.00273 ± 0.0027 |  | 
UCCUGGAUCAGGUUGCAUAGUAUUUAGAAA | 0.00249 ± 0.0025 | 0.00341 ± 0.0019 |  | 
UCCUGGAUGAGCUUGCAUUGUUUUUAGUUA | 0.00285 ± 0.003 | 0.000739 ± 0.0065 |  | 
UCCUGCUACAGCUUGCAUAGUAUUAACUUA | 0.00208 ± 0.0034 | 0.00397 ± 0.0027 |  | 
UCCUGGAUCAGCUUGCUUAGUAUUUAGAAA | 0.00295 ± 0.0031 | 0.00269 ± 0.0022 |  | 

Sequence | pre-steady-state target cleavage rate [1, 3] | pre-steady-state target cleavage rate [2, 4] | pre-steady-state target cleavage rate [1, 5] | pre-steady-state target cleavage rate [2, 6]
UCCUGGAUGAGCUUGCAUACUAUUUUGUUA | 0.000814 ± 0.0076 | 0.00137 ± 0.0039 |  | 
UCCUGGAUCAGCUUGCAUUGUAUUUACUUA | 0.00257 ± 0.0031 | 0.00163 ± 0.0044 |  | 
UCCUCCUACAGCUUGCAUAUUAUUUAGUUA | 0.00236 ± 0.0033 | 0.0783 ± 0.025 |  | 
UCCUGGAUGUCCUUGCAUAGUAUUUAGAUUA | 0.00242 ± 0.0032 | 0.00316 ± 0.003 |  | 
UCCUGGUACAGCUUAGCAUAGUAUUUAGUUA |  | 0.0188 ± 0.0058 | 0.296 ± 0.018 | 
UCCUGGAACAGCUAGCAUACUAUUUAGUUA | 0.00249 ± 0.0026 | 0.0045 ± 0.0019 |  | 
UCCUGGAUGUCGAACGUAAGUAUUUAGUUA [g2:g12:cont:t1A] | 0.000147 ± 0.023 | 0.000124 ± 0.014 |  | 
UCCUGGAUGUCGUUGCAUAGUAUUAACUUA | 0.000103 ± 0.061 |  |  | 0.000301 ± 0.022
UCCUGGAUGUGCUUGCAUAGUAUUUUCUUA | 0.000693 ± 0.008 | 0.00171 ± 0.0036 |  | 
UCCUCCUACACCUUGCAUAGUAUUUUGUUA | 0.00176 ± 0.004 | 0.00451 ± 0.0027 |  | 
UCCUCCUACAGCUUGCAUAGUAUUGAGUUA | 0.00254 ± 0.0029 | 0.00534 ± 0.002 |  | 
UCCUGCUACAGCUUGCAUAGUAUUUCGUUA | 0.00112 ± 0.0051 |  |  | 0.000163 ± 0.036
UCCUGGUACACCUUGCAUAGUAUUUAGAUA | 0.00188 ± 0.0049 | 0.00278 ± 0.0024 |  | 
UCCUGGAUGUGCUUGCAUAGUAAUUAGAUA | 0.000931 ± 0.0083 | 0.00395 ± 0.0024 |  | 
UCCUGGAUCAGCUUGCAUAGUAUUAUCUUA | 0.00188 ± 0.003 | 0.00165 ± 0.0028 |  | 
UCCUGGUACCGCUUGCAUAGUAUUUAGUUA |  |  | 0.293 ± 0.037 | 0.0017 ± 0.0065
UCCUGCUACAGCUUGCAUAGUAUAUAGAUA | 0.000783 ± 0.0076 | 0.00352 ± 0.0017 |  | 
UCCUCCUAGAGCUUGCAUAGUAUUUACUUA | 0.00243 ± 0.0028 | 0.00356 ± 0.0033 |  | 
UCCUCCUACAGCUUGCAUAGUAUCUUAGUUA |  | 0.0254 ± 0.011 | 0.285 ± 0.022 | 
UCCUGGAUGUGCUUGCAUAGUAAAAAGAAA | 0.000665 ± 0.0091 | 0.00141 ± 0.0078 |  | 

Sequence | pre-steady-state target cleavage rate [1, 3] | pre-steady-state target cleavage rate [2, 4] | pre-steady-state target cleavage rate [1, 5] | pre-steady-state target cleavage rate [2, 6]
UCCUGGAUGUGCUUGCAUAGUAAUUAGUAA | 0.0028 ± 0.0034 | 0.0012 ± 0.0051 |  | 
UCCUCCUACAGCUUGGAUAGUAUUUAGAUA | 0.00141 ± 0.0039 | 0.00474 ± 0.0018 |  | 
UCCUGGAUGUGCUUGCUUAGUAUUUACUUA | 0.00295 ± 0.0031 | 0.000292 ± 0.014 |  | 
UCCUGUUACAGCUUGCAUAGUAUUUAGUUA |  | 0.231 ± 0.07 | 0.328 ± 0.018 | 
UCCUCCUACAGCUUGCAUAGUAUUUAGUUUA |  | 0.145 ± 0.039 | 0.333 ± 0.019 | 
UCCUGGUAGAGCUUGCAUAGUAUUUACUUA | 0.00217 ± 0.004 | 0.00156 ± 0.004 |  | 
UCCUGGUACAGCUUGCAUACUAUUUUGUUA | 0.00143 ± 0.0077 | 0.00127 ± 0.0042 |  | 
UCCUGGAUCAGCUUGGAUAGAAUUUAGUUA | 0.00143 ± 0.0038 | 0.000762 ± 0.0046 |  | 
UCCUGCUACAGCUUGCAAAGUAUUUAGAUA | 0.000874 ± 0.0083 | 0.00421 ± 0.0024 |  | 
UCCUGCUACAGCUUGCAUAGUAUUUACAUA | 0.00222 ± 0.0037 |  |  | 0.00027 ± 0.023
UCCUGGAUGUGCUUGCAUAGUUAAAUCAAA [g10:g20:cont:t1A] | 0.000245 ± 0.025 | 0.000409 ± 0.011 |  | 
UCCUGGAUGAGCUUGGAUAGUAUUAAGUUA | 0.00265 ± 0.0029 | 0.000818 ± 0.0075 |  | 
UCCUCCUACAGCUUGCAUAGUAUUAACUUA | 0.00174 ± 0.0035 | 0.00459 ± 0.0029 |  | 
UCCUGGAUCAGCUUGCAUAGUAAUUUGUUA | 0.00163 ± 0.0051 | 0.00366 ± 0.002 |  | 
UCCUGCUAGUCCUUGCAUAGUAUUUAGUAA | 0.00166 ± 0.0035 | 0.00266 ± 0.0028 |  | 
UCCUGCUACUGCAUGCAUAGUAUUUAGUUA |  | 0.00847 ± 0.0024 | 0.282 ± 0.025 | 
UCCUCCUACAGCUUGCAUUGUAUUAAGUUA | 0.00162 ± 0.004 | 0.00681 ± 0.0032 |  | 
UCCUGGAACUGCUUGCAUAGUAUUUUGUUA | 0.0028 ± 0.0028 | 0.00426 ± 0.0026 |  | 
UCCUCGUACAGCUAGCAUAGUAUUUAGUUA |  | 0.0402 ± 0.01 | 0.281 ± 0.012 | 
UCCUGCUACAGCUUGCAUAGUAAUUACUUA | 0.00127 ± 0.006 | 0.0026 ± 0.0026 |  | 

Individual results from the list.
Under pre-steady-state target cleavage rate [1, 3], UCCUGGAUGUGCUUGCUUAGUAUUUACUUA is listed with 0.00295 ± 0.0031
Under pre-steady-state target cleavage rate [1, 3], UCCUGGAUCAGCUUGGAUAGAAUUUAGUUA is listed with 0.00143 ± 0.0038
Under pre-steady-state target cleavage rate [1, 3], UCCUGGAUGAGCUUGGAUAGUAUUAAGUUA is listed with 0.00265 ± 0.0029
Under pre-steady-state target cleavage rate [2, 4], UCCUGCUAGUCCUUGCAUAGUAUUUAGUAA is listed with 0.00266 ± 0.0028
